{"source": "patent US20250345330A1", "about": "(Veradermics, Incorporated, priority 2024, published 2025)", "system": "person with androgenetic alopecia", "test": "Case studies: oral minoxidil in male patients with androgenetic alopecia (blood pressure, heart rate, hair growth)", "note": "At least one structure is not confirmed: it was looked up by name or label, or the drawing left a doubt."}
{"smiles": "Nc1cc(N2CCCCC2)nc(N)[n+]1[O-]", "note": "[Minoxidil, minoxidil]", "values": [{"measurement": "Androgenetic alopecia, patient-reported hair thickness and hair density", "setting": "0.625 mg four times a day", "result": "improvement in their androgenetic alopecia"}, {"measurement": "Androgenetic alopecia, patient-reported hair thickness and hair density", "setting": "1.25 mg QID", "result": "improvement in their androgenetic alopecia"}]}
